Measurements: patent publication EP1410040B1
No constants are given. Whether binding was seen depends on the method and setting. Binding seen in cells or lysates may run through a third protein. Some binding calls cover weakened binding; strength is not graded here.

By UniProt entry, the sequences of proteins in these tests, tags left out. Residues count along the entry.
NCoA-1 N-terminal fragment spanning amino acids 1 to 781 (P70365, residues 1-781): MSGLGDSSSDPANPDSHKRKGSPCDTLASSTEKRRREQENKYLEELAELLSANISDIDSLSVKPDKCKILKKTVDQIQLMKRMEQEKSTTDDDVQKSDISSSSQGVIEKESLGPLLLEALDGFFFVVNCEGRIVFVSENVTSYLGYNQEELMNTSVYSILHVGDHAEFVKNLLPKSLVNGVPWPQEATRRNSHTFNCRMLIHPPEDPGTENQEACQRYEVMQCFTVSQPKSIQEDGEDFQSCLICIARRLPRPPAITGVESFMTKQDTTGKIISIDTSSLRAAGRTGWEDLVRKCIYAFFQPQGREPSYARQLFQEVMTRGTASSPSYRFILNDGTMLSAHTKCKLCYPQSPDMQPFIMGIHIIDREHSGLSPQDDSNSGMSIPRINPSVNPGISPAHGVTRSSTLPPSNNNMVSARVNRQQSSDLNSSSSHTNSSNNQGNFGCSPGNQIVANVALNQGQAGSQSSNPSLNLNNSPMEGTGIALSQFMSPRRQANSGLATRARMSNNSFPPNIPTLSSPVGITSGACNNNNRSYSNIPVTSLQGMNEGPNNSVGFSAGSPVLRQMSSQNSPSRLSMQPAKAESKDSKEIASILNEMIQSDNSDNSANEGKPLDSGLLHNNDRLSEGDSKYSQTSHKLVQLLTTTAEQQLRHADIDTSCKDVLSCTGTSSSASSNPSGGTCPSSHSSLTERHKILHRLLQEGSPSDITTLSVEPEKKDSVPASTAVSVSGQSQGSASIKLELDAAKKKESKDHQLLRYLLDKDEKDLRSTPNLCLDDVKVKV
NCoA-1 fragment (1-571) (P70365, residues 1-571): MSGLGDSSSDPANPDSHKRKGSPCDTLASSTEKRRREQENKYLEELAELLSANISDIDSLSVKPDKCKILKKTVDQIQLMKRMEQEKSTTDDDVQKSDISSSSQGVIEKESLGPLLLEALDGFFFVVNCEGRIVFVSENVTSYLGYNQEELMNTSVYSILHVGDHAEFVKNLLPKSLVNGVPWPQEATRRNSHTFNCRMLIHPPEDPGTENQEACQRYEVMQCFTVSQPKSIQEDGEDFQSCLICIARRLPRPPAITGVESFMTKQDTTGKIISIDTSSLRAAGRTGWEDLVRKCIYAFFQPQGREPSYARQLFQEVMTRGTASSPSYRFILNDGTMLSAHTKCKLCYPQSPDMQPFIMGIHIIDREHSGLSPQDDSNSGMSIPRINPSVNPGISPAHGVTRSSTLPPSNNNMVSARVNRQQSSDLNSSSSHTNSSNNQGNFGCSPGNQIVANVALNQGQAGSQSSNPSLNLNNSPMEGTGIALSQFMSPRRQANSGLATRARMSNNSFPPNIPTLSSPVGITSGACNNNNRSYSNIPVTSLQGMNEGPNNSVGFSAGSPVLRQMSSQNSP

Biological target: GST-STAT6 aa 677-847 protein (human)
Test: GST pull-down, 35S-labeled in vitro translated NCoA-1 fragments

| binding | Substance |
| --- | --- |
| binds | NCoA-1 N-terminal fragment spanning amino acids 1 to 781 (from UniProt P70365 1-781) |
| binds | NCoA-1 fragment (1-571) (from UniProt P70365 1-571) |
| binds | NCoA-1 fragment comprising residues 213 to 462 (from UniProt P70365 212-463) |
